Four molecules from paper PMC8958351, “Ubiquitylation of cyclin C by HACE1 regulates cisplatin‐associated sensitivity in gastric cancer” (Clinical and Translational Medicine, 2022) can be followed below.

These are yes or no findings as the source states them, for the method shown. For part of these data: Binding seen in cells or lysates may run through a third protein. Some entries that bind do so weakly or less than the wild type. For part of these data: Tags and fused reporters may be left off the sequences shown.

Assay [1] has as its target T1, Flag‐tagged HACE1 (human) (UniProt Q8IYU2).
T1 sequence: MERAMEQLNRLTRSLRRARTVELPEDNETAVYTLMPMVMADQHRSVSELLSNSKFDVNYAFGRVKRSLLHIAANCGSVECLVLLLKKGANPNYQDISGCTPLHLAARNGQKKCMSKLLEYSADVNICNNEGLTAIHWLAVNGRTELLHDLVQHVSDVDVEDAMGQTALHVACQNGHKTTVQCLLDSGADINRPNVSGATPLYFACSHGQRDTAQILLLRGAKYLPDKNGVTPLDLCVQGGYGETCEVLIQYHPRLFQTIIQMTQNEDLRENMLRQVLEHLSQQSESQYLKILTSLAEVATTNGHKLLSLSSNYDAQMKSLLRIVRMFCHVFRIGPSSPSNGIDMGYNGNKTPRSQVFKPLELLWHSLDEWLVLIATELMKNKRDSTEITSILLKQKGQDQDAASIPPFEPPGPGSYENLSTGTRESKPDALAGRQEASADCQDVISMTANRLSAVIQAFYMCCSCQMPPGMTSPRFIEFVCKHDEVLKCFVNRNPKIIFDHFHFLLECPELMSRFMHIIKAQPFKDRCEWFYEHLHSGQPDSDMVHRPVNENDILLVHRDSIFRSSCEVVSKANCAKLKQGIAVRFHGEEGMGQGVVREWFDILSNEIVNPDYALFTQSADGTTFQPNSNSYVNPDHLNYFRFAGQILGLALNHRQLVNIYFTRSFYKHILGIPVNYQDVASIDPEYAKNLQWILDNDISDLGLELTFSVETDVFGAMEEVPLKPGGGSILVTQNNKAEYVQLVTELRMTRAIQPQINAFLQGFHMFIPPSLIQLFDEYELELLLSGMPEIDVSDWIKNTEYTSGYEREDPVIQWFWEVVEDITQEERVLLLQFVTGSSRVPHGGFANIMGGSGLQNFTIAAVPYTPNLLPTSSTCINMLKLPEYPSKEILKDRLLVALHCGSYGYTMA
Kind of assay: co-IP; HEK-293FT cells co-transfected; Flag-tagged HACE1 pulled down, HA-CCNC immunoblotted; without cisplatin. On the technique in general: A western blot detects proteins with antibodies after separation by electrophoresis.

In assay [2] the target is T1, Flag‐tagged HACE1 (human). Kind of assay: co-IP; HEK-293FT cells co-transfected; Flag-tagged HACE1 pulled down, HA-CCNC immunoblotted; with 10 μM cisplatin treatment.
For assay [3], the target named is T2, GST‐HACE1 truncation, amino acids 1–257 (human) (UniProt Q8IYU2).
T2 sequence: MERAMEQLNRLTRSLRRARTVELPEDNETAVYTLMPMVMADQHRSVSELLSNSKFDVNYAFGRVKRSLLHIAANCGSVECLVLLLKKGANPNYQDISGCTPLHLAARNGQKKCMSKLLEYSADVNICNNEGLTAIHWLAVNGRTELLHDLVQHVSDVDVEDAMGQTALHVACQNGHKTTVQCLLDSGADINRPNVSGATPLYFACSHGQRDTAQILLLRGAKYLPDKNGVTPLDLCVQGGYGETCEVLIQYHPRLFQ
Kind of assay: pull-down; GST pull-down; purified GST-HACE1 proteins incubated with purified cyclin C-MBP-His for 6 h at 4°C in 50 mM Tris-Cl, 200 mM NaCl, 1 mM EDTA, 1% NP-40, 1 mM DTT, 10 mM MgCl2, 10 μg/ml BSA, pH 8.0; GST pulled down, cyclin C immunoblotted; both purified.

In assay [4] the target is Cyclin C (CCNC), yeast two-hybrid fusion (human) (UniProt P24863). Nature of the assay: two-hybrid; yeast two-hybrid; colony formation on SD-Leu-Trp-His-Ura (SD-4) selection media and plate assays for β-galactosidase activity.
Assay [5] concerns the target Cyclin C, endogenous (human (endogenous in HEK-293FT)) (UniProt P24863). Nature of the assay: co-IP; endogenous proteins in HEK-293FT cells; cyclin C pulled down with cyclin C-specific antibody, HACE1 immunoblotted; without cisplatin.
Assay [6] shares this target. Kind of assay: co-IP; endogenous proteins in HEK-293FT cells; cyclin C pulled down with cyclin C-specific antibody, HACE1 immunoblotted; with 10 μM cisplatin treatment.

For HA‐CCNC (from UniProt P24863 1-283), the binding entry in assay [1] is recorded as “binds weakly”; in assay [2] it was “binds”.

B1: MBP‐His‐tagged cyclin C (natural protein, human)
chain: MAGNFWQSSHYLQWILDKQDLLKERQKDLKFLSEEEYWKLQIFFTNVIQALGEHLKLRQQVIATATVYFKRFYARYSLKSIDPVLMAPTCVFLASKVEEFGVVSNTRLIAAATSVLKTRFSYAFPKEFPYRMNHILECEFYLLELMDCCLIVYHPYRPLLQYVQDMGQEDMLLPLAWRIVNDTYRTDLCLLYPPFMIALACLHVACVVQQKDARQWFAELSVDMEKILEIIRVILKLYEQWKNFDERKEMATILSKMPKPKPPPNSEGEQGPNGSQNSSYSQS
notes: Cyclin C, human; the cDNA of CCNC cloned into pSJ8 (pET21a derivative, MBP-His fusion vector); also called cyclin C‐MBP‐His; source: Escherichia coli BL21, purified (Ni‐NTA agarose beads)
Turning to B1, the binding entry in assay [3] is on record as “no binding”.

B2: HECT domain and ankyrin repeat‐containing E3 ubiquitin‐protein ligase 1 (HACE1), yeast two-hybrid fusion (enzyme, UniProt Q8IYU2 1-909)
chain: T1 sequence
As for B2, the binding result in assay [4] is “binds”.

B3: HACE1, endogenous (enzyme, UniProt Q8IYU2 1-909)
chain: T1 sequence
For the molecule B3, the binding entry in assay [5] is given as “binds weakly”; in assay [6] it was “binds”.
